# Data from the supplement of paper PMC12819154, “High-throughput peptide-centric local stability assay extends protein–ligand identification to membrane proteins, tissues and bacteria” (Nature Structural & Molecular Biology, 2025).
# Protein sequences, listed by entry. Tags and fused reporters are not part of them. Lines headed by an entry give the natural chain unless they say otherwise; changes in a name come on top.
# UniProt Q61598: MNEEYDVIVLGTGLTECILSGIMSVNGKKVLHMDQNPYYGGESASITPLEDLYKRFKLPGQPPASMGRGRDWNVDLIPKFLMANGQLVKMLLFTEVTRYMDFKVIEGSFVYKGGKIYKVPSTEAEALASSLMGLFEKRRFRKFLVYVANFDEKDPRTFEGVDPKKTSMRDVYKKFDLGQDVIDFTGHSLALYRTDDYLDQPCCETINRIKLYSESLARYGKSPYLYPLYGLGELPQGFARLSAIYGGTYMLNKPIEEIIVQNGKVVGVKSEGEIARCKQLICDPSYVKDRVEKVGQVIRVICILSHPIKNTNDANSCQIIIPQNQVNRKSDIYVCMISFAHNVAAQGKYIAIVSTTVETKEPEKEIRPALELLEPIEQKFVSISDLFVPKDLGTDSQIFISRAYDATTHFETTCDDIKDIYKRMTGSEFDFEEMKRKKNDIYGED
# UniProt Q61543: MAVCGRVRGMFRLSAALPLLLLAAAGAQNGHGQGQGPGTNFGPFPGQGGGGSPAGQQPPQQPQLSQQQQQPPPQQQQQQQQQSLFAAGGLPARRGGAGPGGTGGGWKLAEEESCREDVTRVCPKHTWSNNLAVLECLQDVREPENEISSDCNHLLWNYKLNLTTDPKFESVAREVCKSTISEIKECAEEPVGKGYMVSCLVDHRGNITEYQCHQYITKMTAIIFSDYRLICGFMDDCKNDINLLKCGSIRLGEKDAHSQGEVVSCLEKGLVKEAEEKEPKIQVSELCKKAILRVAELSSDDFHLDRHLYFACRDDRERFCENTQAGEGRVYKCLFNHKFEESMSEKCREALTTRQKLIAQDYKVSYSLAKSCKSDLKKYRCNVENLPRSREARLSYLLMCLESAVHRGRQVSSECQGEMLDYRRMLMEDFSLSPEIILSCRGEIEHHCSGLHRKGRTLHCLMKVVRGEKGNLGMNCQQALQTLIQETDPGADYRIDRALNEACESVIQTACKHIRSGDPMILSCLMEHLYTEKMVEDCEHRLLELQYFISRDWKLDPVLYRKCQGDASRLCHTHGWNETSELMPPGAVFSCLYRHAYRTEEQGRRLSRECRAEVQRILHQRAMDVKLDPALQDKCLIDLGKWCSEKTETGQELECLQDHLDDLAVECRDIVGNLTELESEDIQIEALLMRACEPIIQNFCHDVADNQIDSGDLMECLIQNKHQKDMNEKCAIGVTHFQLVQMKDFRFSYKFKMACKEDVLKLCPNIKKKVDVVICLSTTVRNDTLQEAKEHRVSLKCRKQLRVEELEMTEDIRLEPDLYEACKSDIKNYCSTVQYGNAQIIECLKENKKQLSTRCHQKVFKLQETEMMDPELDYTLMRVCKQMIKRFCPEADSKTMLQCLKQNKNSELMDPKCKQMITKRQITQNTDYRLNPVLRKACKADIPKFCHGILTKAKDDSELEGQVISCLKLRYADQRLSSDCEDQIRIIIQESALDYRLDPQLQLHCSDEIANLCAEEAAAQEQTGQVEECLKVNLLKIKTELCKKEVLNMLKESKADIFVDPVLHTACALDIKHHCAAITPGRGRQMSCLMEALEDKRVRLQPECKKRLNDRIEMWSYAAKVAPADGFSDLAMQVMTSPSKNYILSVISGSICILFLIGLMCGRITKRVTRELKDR
# UniProt Q62151: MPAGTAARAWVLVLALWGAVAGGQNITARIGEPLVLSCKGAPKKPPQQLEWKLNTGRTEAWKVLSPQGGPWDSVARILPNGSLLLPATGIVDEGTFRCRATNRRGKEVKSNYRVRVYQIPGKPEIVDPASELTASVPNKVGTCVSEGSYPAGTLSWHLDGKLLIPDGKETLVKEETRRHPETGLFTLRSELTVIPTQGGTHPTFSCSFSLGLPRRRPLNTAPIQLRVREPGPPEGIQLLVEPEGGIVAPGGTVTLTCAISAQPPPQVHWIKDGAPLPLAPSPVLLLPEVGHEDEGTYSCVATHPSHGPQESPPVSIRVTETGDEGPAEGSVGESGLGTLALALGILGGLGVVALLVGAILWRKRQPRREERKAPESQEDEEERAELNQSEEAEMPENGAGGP
# UniProt Q62511: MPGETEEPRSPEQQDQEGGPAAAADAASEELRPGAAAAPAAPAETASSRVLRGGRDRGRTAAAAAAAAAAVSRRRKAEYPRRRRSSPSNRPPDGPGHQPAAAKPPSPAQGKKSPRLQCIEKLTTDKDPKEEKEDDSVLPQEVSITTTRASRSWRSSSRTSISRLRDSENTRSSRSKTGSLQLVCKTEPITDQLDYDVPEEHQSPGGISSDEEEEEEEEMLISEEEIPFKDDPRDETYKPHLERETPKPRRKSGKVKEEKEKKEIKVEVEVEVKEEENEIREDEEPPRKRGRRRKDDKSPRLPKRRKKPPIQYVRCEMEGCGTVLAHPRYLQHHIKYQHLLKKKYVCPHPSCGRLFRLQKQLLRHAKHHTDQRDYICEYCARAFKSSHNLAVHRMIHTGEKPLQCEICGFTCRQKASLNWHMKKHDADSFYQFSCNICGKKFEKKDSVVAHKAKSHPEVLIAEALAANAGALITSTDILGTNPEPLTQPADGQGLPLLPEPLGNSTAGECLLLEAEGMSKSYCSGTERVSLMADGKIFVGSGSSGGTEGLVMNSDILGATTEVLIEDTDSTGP
# UniProt Q61884: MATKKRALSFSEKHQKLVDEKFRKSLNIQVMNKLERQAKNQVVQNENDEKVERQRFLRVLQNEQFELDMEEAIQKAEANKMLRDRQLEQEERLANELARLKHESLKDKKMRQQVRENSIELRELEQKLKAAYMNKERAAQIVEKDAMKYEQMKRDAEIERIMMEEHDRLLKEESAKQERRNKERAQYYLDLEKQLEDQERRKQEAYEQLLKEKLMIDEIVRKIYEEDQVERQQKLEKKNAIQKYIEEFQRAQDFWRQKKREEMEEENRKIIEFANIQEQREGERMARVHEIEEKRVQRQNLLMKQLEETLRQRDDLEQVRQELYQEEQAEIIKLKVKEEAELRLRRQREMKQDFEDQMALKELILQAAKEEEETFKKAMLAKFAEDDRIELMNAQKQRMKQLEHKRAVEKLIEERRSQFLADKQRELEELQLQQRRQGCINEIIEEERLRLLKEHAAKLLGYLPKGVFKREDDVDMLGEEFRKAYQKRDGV
# UniProt Q61458: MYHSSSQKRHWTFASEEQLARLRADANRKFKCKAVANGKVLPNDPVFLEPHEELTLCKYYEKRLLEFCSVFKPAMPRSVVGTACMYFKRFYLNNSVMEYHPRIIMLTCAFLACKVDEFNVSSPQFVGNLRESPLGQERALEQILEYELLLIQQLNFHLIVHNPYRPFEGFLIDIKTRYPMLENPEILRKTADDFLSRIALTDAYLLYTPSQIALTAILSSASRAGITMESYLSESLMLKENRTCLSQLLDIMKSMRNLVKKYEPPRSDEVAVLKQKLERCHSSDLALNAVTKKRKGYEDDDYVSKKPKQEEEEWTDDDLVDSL
# UniProt Q63886: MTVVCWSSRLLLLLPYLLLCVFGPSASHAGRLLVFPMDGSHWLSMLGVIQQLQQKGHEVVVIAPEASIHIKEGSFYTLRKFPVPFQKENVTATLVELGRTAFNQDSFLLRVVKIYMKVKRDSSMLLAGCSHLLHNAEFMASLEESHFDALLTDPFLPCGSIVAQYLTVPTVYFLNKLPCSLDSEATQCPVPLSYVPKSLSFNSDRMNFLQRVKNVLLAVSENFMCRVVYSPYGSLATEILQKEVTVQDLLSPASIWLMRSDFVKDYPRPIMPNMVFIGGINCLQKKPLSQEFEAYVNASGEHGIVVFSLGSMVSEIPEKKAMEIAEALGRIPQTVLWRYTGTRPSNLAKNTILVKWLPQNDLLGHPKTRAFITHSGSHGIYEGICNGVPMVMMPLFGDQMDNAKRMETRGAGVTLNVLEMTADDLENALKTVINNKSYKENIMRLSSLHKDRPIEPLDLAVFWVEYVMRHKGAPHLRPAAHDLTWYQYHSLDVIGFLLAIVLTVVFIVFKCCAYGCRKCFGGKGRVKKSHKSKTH
# UniProt Q64010: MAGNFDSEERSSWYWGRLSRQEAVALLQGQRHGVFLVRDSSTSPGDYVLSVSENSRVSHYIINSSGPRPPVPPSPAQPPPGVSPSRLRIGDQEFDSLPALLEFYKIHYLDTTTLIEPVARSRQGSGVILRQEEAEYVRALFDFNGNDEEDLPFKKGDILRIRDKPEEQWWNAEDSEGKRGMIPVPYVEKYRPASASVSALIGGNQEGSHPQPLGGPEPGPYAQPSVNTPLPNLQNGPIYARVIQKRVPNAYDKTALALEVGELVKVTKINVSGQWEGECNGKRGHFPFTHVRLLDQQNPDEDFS
# UniProt Q64514: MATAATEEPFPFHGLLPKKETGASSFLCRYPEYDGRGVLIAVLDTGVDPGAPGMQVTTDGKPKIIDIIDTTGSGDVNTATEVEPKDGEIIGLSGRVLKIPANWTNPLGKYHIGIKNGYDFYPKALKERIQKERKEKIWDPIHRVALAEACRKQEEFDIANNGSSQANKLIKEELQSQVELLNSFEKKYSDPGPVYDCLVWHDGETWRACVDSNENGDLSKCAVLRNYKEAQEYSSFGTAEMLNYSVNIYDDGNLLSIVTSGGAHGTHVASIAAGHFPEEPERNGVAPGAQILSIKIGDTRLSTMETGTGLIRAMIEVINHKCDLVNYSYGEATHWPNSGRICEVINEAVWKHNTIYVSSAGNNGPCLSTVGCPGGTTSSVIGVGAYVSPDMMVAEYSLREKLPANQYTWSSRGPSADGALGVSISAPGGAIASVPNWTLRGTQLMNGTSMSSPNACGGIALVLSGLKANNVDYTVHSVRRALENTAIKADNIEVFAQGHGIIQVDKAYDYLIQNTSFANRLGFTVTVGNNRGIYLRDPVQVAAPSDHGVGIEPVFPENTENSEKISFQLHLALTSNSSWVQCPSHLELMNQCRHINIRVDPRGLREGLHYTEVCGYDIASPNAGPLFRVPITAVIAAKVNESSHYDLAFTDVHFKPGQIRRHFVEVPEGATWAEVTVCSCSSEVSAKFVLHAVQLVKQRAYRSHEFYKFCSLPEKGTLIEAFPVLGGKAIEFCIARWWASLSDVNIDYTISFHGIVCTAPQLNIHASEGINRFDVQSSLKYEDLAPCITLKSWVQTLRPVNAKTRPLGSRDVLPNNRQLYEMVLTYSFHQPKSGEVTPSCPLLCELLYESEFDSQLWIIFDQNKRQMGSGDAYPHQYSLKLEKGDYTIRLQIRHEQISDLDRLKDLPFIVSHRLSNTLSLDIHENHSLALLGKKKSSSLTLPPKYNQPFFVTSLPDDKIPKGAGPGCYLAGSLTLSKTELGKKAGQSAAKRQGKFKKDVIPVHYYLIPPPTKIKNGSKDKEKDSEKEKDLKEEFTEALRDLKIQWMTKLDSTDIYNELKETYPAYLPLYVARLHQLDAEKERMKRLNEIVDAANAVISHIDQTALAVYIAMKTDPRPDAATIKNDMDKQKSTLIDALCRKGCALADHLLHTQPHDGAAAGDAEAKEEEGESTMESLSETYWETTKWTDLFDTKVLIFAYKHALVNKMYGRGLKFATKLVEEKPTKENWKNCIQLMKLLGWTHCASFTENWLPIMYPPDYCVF
# UniProt Q62312: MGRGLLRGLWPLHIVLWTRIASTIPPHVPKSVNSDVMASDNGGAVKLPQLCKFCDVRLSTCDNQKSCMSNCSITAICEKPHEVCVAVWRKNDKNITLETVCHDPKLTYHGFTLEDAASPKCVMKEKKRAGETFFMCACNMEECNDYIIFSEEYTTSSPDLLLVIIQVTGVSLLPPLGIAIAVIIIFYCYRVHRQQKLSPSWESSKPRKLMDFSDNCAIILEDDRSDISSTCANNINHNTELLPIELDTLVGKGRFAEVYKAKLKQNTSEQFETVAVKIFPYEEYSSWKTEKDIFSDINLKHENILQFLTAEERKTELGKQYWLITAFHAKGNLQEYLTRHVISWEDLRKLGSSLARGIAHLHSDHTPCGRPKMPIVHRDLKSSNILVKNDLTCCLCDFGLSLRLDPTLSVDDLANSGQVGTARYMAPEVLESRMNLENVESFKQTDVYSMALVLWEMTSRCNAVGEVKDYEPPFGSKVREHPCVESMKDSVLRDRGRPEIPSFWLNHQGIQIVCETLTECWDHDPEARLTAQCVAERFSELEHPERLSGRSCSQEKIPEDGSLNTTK
# UniProt Q64314: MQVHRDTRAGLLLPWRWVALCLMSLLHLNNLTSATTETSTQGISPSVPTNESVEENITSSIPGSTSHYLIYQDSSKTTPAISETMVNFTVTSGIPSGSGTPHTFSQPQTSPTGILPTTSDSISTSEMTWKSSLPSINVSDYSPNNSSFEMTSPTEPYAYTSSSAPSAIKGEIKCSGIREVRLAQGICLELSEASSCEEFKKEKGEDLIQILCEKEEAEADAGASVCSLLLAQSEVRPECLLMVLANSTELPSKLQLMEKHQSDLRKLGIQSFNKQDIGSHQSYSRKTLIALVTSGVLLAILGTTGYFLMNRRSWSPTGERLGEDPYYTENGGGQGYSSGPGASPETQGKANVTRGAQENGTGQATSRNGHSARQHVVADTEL
# This is one part of the list. Most entries show no effect beyond the scatter of the controls.
# Compound: CN[C@@H]1C[C@H]2O[C@@](C)([C@@H]1OC)n1c3ccccc3c3c4c(c5c6ccccc6n2c5c31)C(=O)NC4 [staurosporine]
# Experiment: log2 fold change of tryptic peptide abundance, ligand vs vehicle (limited proteolysis) (log2 ratio); higher = more trypsin-susceptible (destabilized)
# Settings: ligand concentration: 20 uM; sample: mouse liver crude lysate; replicate design: treated separately
row,Target,log2 fold change
1,"UniProt Q61598 (peptide sequence: DLGTDSQIFISR, peptide start residue: 391)",-0.62
2,"UniProt Q61543 (peptide sequence: QMSCLMEALEDKR, peptide start residue: 1085)",0.519
3,"UniProt Q640Q5 (peptide sequence: CMVLVDMWK, peptide start residue: 533)",0.283
4,"UniProt Q61858 (peptide sequence: AEPVLDGAAAR, peptide start residue: 54)",-0.14
5,"UniProt Q62151 (peptide sequence: KPPQQLEWK, peptide start residue: 44)",0.224
6,"UniProt Q62511 (peptide sequence: YLQHHIK, peptide start residue: 329)",0.189
7,"UniProt Q62523 (peptide sequence: KFAPVVAPKPK, peptide start residue: 25)",0.474
8,"UniProt Q62264 (peptide sequence: SICVEVDHGLLPREEWQAK, peptide start residue: 65)",-0.174
9,"UniProt Q64458 (peptide sequence: GTTVITSLSSVLHDSK, peptide start residue: 384)",-0.209
10,"UniProt Q68ED3 (peptide sequence: CNNNLSEEKEALGK, peptide start residue: 473)",-0.803
11,"UniProt Q69ZP3 (peptide sequence: VNLVAILCTHK, peptide start residue: 163)",0.541
12,"UniProt Q68FE6 (peptide sequence: SQSFAGVLGSHER, peptide start residue: 20)",0.303
13,"UniProt Q61884 (peptide sequence: LLKEESAK, peptide start residue: 169)",0.192
14,"UniProt Q64343 (peptide sequence: SIVCTIHQPSAK, peptide start residue: 268)",0.506
15,"UniProt Q61458 (peptide sequence: MYHSSSQK, peptide start residue: 1)",-0.586
16,"UniProt Q64213 (peptide sequence: GSDGPSHESEDFPRPLVTLPGR, peptide start residue: 616)",0.451

row,Target,log2 fold change
1,"UniProt Q69Z38 (peptide sequence: STEAESILHSEGSR, peptide start residue: 901)",-0.395
2,"UniProt Q63886 (peptide sequence: TAFNQDSFLLR, peptide start residue: 100)",-0.314
3,"UniProt Q62074 (peptide sequence: LVTIECGR, peptide start residue: 185)",0.509
4,"UniProt Q64010 (peptide sequence: ALFDFNGNDEEDLPFKK, peptide start residue: 139)",0.213
5,"UniProt Q61490 (peptide sequence: HVNKDLGNMEENK, peptide start residue: 560)",0.666
6,"UniProt Q61768 (peptide sequence: VHEMEKEHLNK, peptide start residue: 680)",0.235
7,"UniProt Q64012 (peptide sequence: LEQIAEEQKANPDGKK, peptide start residue: 208)",0.788
8,"UniProt Q62189 (peptide sequence: TDSDIIAK, peptide start residue: 95)",-0.126
9,"UniProt Q64514 (peptide sequence: DLPFIVSHR, peptide start residue: 905)",0.174
10,"UniProt Q68FF6 (peptide sequence: LLSLGAQANFFHPEK, peptide start residue: 152)",-0.386
11,"UniProt Q62136 (peptide sequence: RDGLLTPSMSESDLTTSGR, peptide start residue: 790)",0.481
12,"UniProt Q62376 (peptide sequence: EFEVYGPIKR, peptide start residue: 122)",0.409
13,"UniProt Q63870 (peptide sequence: PGLAGKK, peptide start residue: 2643)",0.118
14,"UniProt Q62312 (peptide sequence: VREHPCVESMKDSVLR, peptide start residue: 478)",0.457
15,"UniProt Q64314 (peptide sequence: GAQENGTGQATSR, peptide start residue: 355)",-0.0601

# Exported with bars between the fields: entries from further up
row | Target | log2 fold change
11 | UniProt Q62136 (peptide sequence: RDGLLTPSMSESDLTTSGR, peptide start residue: 790) | 0.481
12 | UniProt Q62376 (peptide sequence: EFEVYGPIKR, peptide start residue: 122) | 0.409
